Data on 1 substance can be found in article PMC8595372 (Nature Communications, 2021).

The chains behind the UniProt entries cited, without tags or fusion partners.
UniProt P30281: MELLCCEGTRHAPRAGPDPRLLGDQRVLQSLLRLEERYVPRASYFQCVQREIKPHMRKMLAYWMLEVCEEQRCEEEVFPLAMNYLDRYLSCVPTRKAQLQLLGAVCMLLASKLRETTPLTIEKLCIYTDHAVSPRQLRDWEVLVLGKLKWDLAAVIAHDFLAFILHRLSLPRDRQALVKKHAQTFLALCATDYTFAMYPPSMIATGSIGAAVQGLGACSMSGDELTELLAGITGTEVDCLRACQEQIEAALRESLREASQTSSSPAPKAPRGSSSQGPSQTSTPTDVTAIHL

This test has as its target Full-length human wild-type Cyclin D3 (human) (UniProt P30281). Nature of the test: co-purification (GST-affinity chromatography, then SEC); His6-Cdk4 and GST-CycD3 co-expressed in Sf9 cells from Cre-fused vectors; complex captured by GST-affinity chromatography, then TEV protease cleavage and SEC.

Results are given in words; binding and its absence hold for the method and conditions named. Some entries that bind do so weakly or less than the wild type.

Turning to “Full-length human wild-type Cdk4 (from UniProt P11802-1 1-303) (enzyme)”, the binding result is reported as “binds”.
